Positions count from the first letter of the chain named. Names may count otherwise. No constants are given. Whether binding was seen depends on the method and setting. For part of these data: Binding calls can cover weak binding; strength is not graded here. One block for each binder: values may come before it.
Key:
[1] = molecular target: recombinant cynomolgus monkey IL-23 (cynomolgus monkey); assay: cynomolgus monkey IL-23-IL-23R neutralisation ELISA
IFNγ = assay: binding or inhibition ELISA (which of the two is not said)
IL-27 = assay: as above

- binding [1]: binds
B1: 12G1 (VHH, not shown: small tags and cut ends)
VHH: EVQLVESGGGLVQPGGSLRLSCAASVSIWSFKVMGWYRQVPGKQRELVATITTGGSPDYADSVKGRFTMSRDYDKRTVFLEMDSVKPEDAAVYYCNGRLWAHLTSSGHDVWGQGTRVTVSS

- binding [1]: binds
B2: 1E2 (VHH, not shown: small tags and cut ends)
VHH: B1 VHH with R116Q

- binding [1]: binds
B3: 10E2 (VHH, not shown: small tags and cut ends)
VHH: EVQLVESGGGLAQAGGSLRLSCAPSGRAFSGSAMGWFRQVPGKEREFVGVIIWTGGYTYYADSVKGRFTISRDSAKNTVYLQMDSLKPEDTAVYYCAARTPNSSWFPTTLYEYDYWGQGTQVTVSS

- binding (IFNγ): no binding
- binding (IL-27): no binding
- binding [1]: binds
B4: ID-L253T (VHH)
VHH: DVQLVESGGGQVQPGGSLSLSCESSVSIWSFKVMGWFRQVPGKQRELVATITTGGSPDYSDSVKGRFTISRDYDKRTLYLQMNSLKPEDTAVYYCAGRLWAHITSSGHDVWGQGTQVTVSS

— patent publication US20220242945A1
